Measured values from US20070185028A1, “Compositions and methods for treatment of protein misfolding and protein aggregation diseases” (priority 2004, published 2007).
Results are given in words; binding and its absence hold for the method and conditions named. Binding calls can cover weak binding; strength is not graded here.

How the values were obtained:
[1] = target: Bovine βH crystallin (bovine); assay: protein pin array ELISA, A450; listed as peak peptide with unheated and pre-heated target
[2] = target: Bovine βH crystallin (bovine); assay: protein pin array
[3] = target: Bovine βH crystallin (bovine); assay: protein pin array ELISA, A450, unheated βH crystallin; similar maxima pre-heated at 45° C

Measured: binding

HGKHEERQDE […]
binds: [1] | [1]; record 2 | [1]; record 3 | [1]; record 4 | [1]; record 5 | [1]; record 6 | [1]; record 7 | [1]; record 8 | [1]; record 9 | [1]; record 10 | [1]; record 11 | [2] | [2]; record 2 | [2]; record 3 | [3] | [3]; record 2 | [3]; record 3 | [3]; record 4 | [3]; record 5 | [3]; record 6 | [3]; record 7 | [3]; record 8 | [3]; record 9 | [3]; record 10 | [3]; record 11
